Reference: PubChem BioAssay AID328 (DTP/NCI, 2004)
The list shows only some results of the screen, not a fair sample: it gathers tests that were run many times, whatever their T/C, doses with no T/C, and many T/C values between a quarter and a half above the control. Further doses and runs are listed elsewhere. T/C gives the treated animals as a percentage of the vehicle group. Some doses have a count of surviving animals in place of a T/C: the source holds a T/C of zero for them, seemingly a mark for toxic or unscored doses. Some survivor counts are full or nearly so, which does not show that the dose was tolerated: survival well below the control is almost never listed, so the zero probably covers shortened survival too. Counts of survivors are from the toxicity check (mostly the fifth day) where no day follows; animals may have died later. Schedules are NCI's codes, read here as Q, the interval in days (D) or hours (H), X, the number of doses. Where survival is the endpoint, this PubChem deposit counts one and a half times the control or more as active, and values a quarter to a half above the control carry no call in these data; other NCI protocols may use other cut-offs. Some entries hold several experiments; the results are listed from low to high. Some T/C values are followed by the survivors on the day toxicity was checked, most often the fifth; without a count, all were alive then. Starred links: 1 amine or outer side, 2 acyl side, 3 side chain; linkers in the order of their positions; H or OH if unused. Positions of bridges follow the written chain, without caps; N, C: chain ends. Non-standard residues stand in square brackets, D forms with d. Residues, ends and D or L forms follow the SMILES beside them. Chains are numbered I, II in the order given. Actinocin(1to9) = Cc1c2oc3c(C)ccc(C(=O)[*:2])c3nc-2c(C(=O)[*:1])c(N)c1=O; NMeV = CN[CH](C(=O)O)C(C)C; Aze = O=C(O)[CH]1CCN1; Sar = CNCC(=O)O

Test system: BDF1 mice, P388 leukemia ip, median survival T/C
Assay: NCI In Vivo Anticancer Drug Screen. Data for tumor model P388 Leukemia (intraperitoneal) in B6D2F1 (BDF1) mice
Conditions: T/C endpoint: median survival time, higher T/C = longer survival
In short: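 Compound-treated tumour-bearing mice were compared with vehicle-treated controls. Survival was recorded, and the value is the treated-group measurement divided by the control-group measurement (T/C).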

[1] = dose: 100.0 mg/kg/injection, schedule: Q04DX003 (ip), vehicle: saline with Tween-80
[2] = dose: 400.0 mg/kg/injection, schedule: Q04DX003 (ip), vehicle: saline
[3] = dose: 100.0 mg/kg/injection, schedule: Q04DX003 (ip), vehicle: Klucel (hydroxypropylcellulose) (HPC)
[4] = dose: 6.25 mg/kg/injection, schedule: Q01DX009 (ip), vehicle: Klucel (hydroxypropylcellulose) (HPC)
[5] = dose: 400.0 mg/kg/injection, schedule: Q04DX003 (ip), vehicle: saline with Tween-80
[6] = dose: 50.0 mg/kg/injection, schedule: Q01DX009 (ip), vehicle: Klucel (hydroxypropylcellulose) (HPC)
[7] = dose: 50.0 mg/kg/injection, schedule: Q04DX003 (ip), vehicle: saline with Tween-80

Nc1nc(N)c2cc(CNc3ccc(C(=O)NC(CC(=O)O)CC(=O)O)cc3)ccc2n1
survivor count (dose: 200.0 mg/kg/injection, schedule: Q01DX009 (ip), vehicle: saline with Tween-80): 6 of 6 | survivor count (dose: 300.0 mg/kg/injection, schedule: Q01DX009 (ip), vehicle: saline with Tween-80): 6 of 6

C=CCN1C(=O)CN=C1SC(=O)Nc1ccc(Cl)cc1
survivor count (dose: 200.0 mg/kg/injection, schedule: Q01DX005 (ip), vehicle: saline with Tween-80): 4 of 5

Cc1ccc(S)cc1
survivor count [1]: 3 of 6

N=c1c2ccccc2nc2n1CCCCC2
survivor count (dose: 100.0 mg/kg/injection, schedule: Q04DX003 (ip), vehicle: saline): 3 of 6 | survivor count (dose: 200.0 mg/kg/injection, schedule: Q04DX003 (ip), vehicle: saline): 4 of 6 | survivor count [2]: 0 of 6

C[N+](C)(C)CCCC[N+](C)(C)C
survivor count (dose: 400.0 mg/kg/injection, schedule: Q01DX009 (ip), vehicle: saline): 0 of 6 | survivor count [2]: 2 of 6

CCOC(=O)C1OC12CCCCC2 (centres undefined)
survivor count [3]: 6 of 6

ClC1CC[N-]CC1.ClC1CC[N-]CC1.[Cl][Pt+2]([Cl])([Cl])[Cl]
T/C (dose: 3.12 mg/kg/injection, schedule: Q01DX009 (ip), vehicle: Klucel (hydroxypropylcellulose) (HPC)): 132 % of control | T/C [4]: 147 % of control

CSc1ncnc2c1ncn2CCCl
survivor count [5]: 1 of 6

COc1c(Br)cc(/C=C(/C)[N+](=O)[O-])cc1Br
survivor count [5]: 5 of 6

C=C1C(=O)CCC1C(=O)O (centres undefined)
T/C (dose: 178.0 mg/kg/injection, schedule: Q01DX009 (ip), vehicle: saline): 129 % of control | T/C (dose: 200.0 mg/kg/injection, schedule: Q01DX009 (ip), vehicle: saline): 136 and 140 % of control | T/C (dose: 266.0 mg/kg/injection, schedule: Q01DX009 (ip), vehicle: saline): 136 % of control | T/C (dose: 600.0 mg/kg/injection, schedule: Q04DX003 (ip), vehicle: saline): 140 % of control | T/C (dose: 900.0 mg/kg/injection, schedule: Q04DX003 (ip), vehicle: saline): 146 % of control

CC[P+]1(c2ccccc2)CCCc2ccc3ccccc3c21 (centres undefined)
T/C (dose: 4.12 mg/kg/injection, schedule: Q01DX009 (ip), vehicle: saline): 126 % of control | T/C (dose: 6.25 mg/kg/injection, schedule: Q01DX009 (ip), vehicle: saline): 125 and 142 % of control | T/C (dose: 9.37 mg/kg/injection, schedule: Q01DX009 (ip), vehicle: saline): 131 % of control | T/C (dose: 13.8 mg/kg/injection, schedule: Q01DX009 (ip), vehicle: saline): 140 % of control [5 of 6 alive] | T/C (dose: 21.0 mg/kg/injection, schedule: Q01DX009 (ip), vehicle: saline): 130 % of control | survivor count (dose: 45.0 mg/kg/injection, schedule: Q01DX009 (ip), vehicle: saline): 0 of 6 | survivor count (dose: 70.0 mg/kg/injection, schedule: Q01DX009 (ip), vehicle: saline): 0 of 6

NC(CO)C(=O)O.[Cl-].[Cl-].[Cl-].[Cl-].[Pt+2] (centres undefined)
T/C (dose: 12.5 mg/kg/injection, schedule: Q01DX009 (ip), vehicle: saline): 129 % of control | T/C (dose: 25.0 mg/kg/injection, schedule: Q01DX009 (ip), vehicle: saline): 143 % of control | survivor count (dose: 100.0 mg/kg/injection, schedule: Q01DX009 (ip), vehicle: saline): 5 of 6

CCC[CH2][Sn]([Cl])([CH2]CCC)[S]C(=S)NCCNC(=S)[S][Sn]([Cl])([CH2]CCC)[CH2]CCC
T/C [4]: 140 % of control | T/C (dose: 6.25 mg/kg/injection, schedule: Q04DX003 (ip), vehicle: Klucel (hydroxypropylcellulose) (HPC)): 147 % of control | survivor count (dose: 25.0 mg/kg/injection, schedule: Q01DX009 (ip), vehicle: Klucel (hydroxypropylcellulose) (HPC)): 6 of 6 | survivor count (dose: 25.0 mg/kg/injection, schedule: Q04DX003 (ip), vehicle: Klucel (hydroxypropylcellulose) (HPC)): 4 of 6 | survivor count [6]: 2 of 6 | survivor count (dose: 50.0 mg/kg/injection, schedule: Q04DX003 (ip), vehicle: Klucel (hydroxypropylcellulose) (HPC)): 0 of 6 | survivor count [3]: 0 of 6

COC(=O)C1C(O)C(C)C(O)OC1C(C)C(O)C(C)/C=C\C=C(/C)C(=O)Nc1c(C)c(OC(C)=O)c2c(c1O)C(=O)C(C)=C1OCOC(/C(C)=C/C(C)=O)=C12 (centres undefined)
T/C [6]: 142 % of control | T/C (dose: 100.0 mg/kg/injection, schedule: Q01DX009 (ip), vehicle: Klucel (hydroxypropylcellulose) (HPC)): 142 % of control | survivor count (dose: 150.0 mg/kg/injection, schedule: Q01DX009 (ip), vehicle: Klucel (hydroxypropylcellulose) (HPC)): 0 of 6 | survivor count (dose: 200.0 mg/kg/injection, schedule: Q01DX009 (ip), vehicle: Klucel (hydroxypropylcellulose) (HPC)): 5 of 6 | survivor count (dose: 250.0 mg/kg/injection, schedule: Q01DX009 (ip), vehicle: Klucel (hydroxypropylcellulose) (HPC)): 0 of 6

Cc1c2oc3c(C)ccc(C(=O)NC4C(=O)NC(C(C)C)C(=O)N5CCCC5C(=O)N(C)CC(=O)N(C)C(C(C)C)C(=O)OC4C)c3nc-2c(C(=O)NC2C(=O)NC(C(C)C)C(=O)N3CCC3C(=O)N(C)CC(=O)N(C)C(C(C)C)C(=O)OC2C)c(N)c1=O (centres undefined) (I: TV[Aze][Sar][NMeV] / II: TVP[Sar][NMeV]; ester I:1-I:C, II:1-II:C; linker I:N-II:N via Actinocin(1to9); configuration not given here)
T/C (dose: 75.0 micrograms/kg/injection, schedule: Q04DX003 (ip), vehicle: saline + alcohol): 132 % of control | T/C (dose: 1200.0 micrograms/kg/injection, schedule: Q04DX003 (ip), vehicle: saline + alcohol): 145 % of control

CCCCC1C(=O)OC(C(C)C(O)CCCN=C(N)N)C(C)C=C(C)CCCCC(O)CC(O)CC(O)CC(O)CC(O)C(OC2OC(CO)C(O)C2O)C=C(C)C(O)CCCC(O)CCCC(O)CCC(C)C1O (centres undefined)
survivor count (dose: 5.0 mg/kg/injection, schedule: Q01DX010 (ip), vehicle: carboxymethylcellulose (CMC)): 2 of 6 | survivor count (dose: 10.0 mg/kg/injection, schedule: Q01DX010 (ip), vehicle: carboxymethylcellulose (CMC)): 0 of 6 | survivor count (dose: 20.0 mg/kg/injection, schedule: Q01DX010 (ip), vehicle: carboxymethylcellulose (CMC)): 0 of 6

C1OCC2[CH2][Hg][S][Hg][CH2]C1O2
survivor count (dose: 10.0 mg/kg/injection, schedule: Q01DX010 (ip), vehicle: saline): 0 of 6 | survivor count (dose: 20.0 mg/kg/injection, schedule: Q01DX010 (ip), vehicle: saline): 0 of 6 | survivor count (dose: 40.0 mg/kg/injection, schedule: Q01DX010 (ip), vehicle: saline): 0 of 6 | survivor count (dose: 80.0 mg/kg/injection, schedule: Q01DX010 (ip), vehicle: saline): 0 of 6

CC(Nc1ccccc1)(C(N)=O)c1ccccc1 (centres undefined)
survivor count (dose: 100.0 mg/kg/injection, schedule: Q01DX001 (ip), vehicle: saline with Tween-80): 6 of 6

O=c1[nH]c2ccccc2nc1CBr
T/C (dose: 12.5 mg/kg/injection, schedule: Q01DX009 (ip), vehicle: saline with Tween-80): 127 % of control | survivor count (dose: 25.0 mg/kg/injection, schedule: Q01DX009 (ip), vehicle: saline with Tween-80): 5 of 6 | survivor count (dose: 50.0 mg/kg/injection, schedule: Q01DX009 (ip), vehicle: saline with Tween-80): 3 of 6 | survivor count [7]: 5 of 6 | survivor count [1]: 6 of 6 | survivor count (dose: 200.0 mg/kg/injection, schedule: Q04DX003 (ip), vehicle: saline with Tween-80): 5 of 6 | survivor count [5]: 0 of 6

Nc1nc(-c2ccccc2)cc2ccccc12
survivor count [7]: 2 of 6

C/C=C(/C)C(=O)O[C@H]1CC[N+]2([O-])CC=C(COC(=O)[C@@](O)([C@H](C)OC)C(C)(C)O)[C@H]12 (some centres undefined)
survivor count (dose: 6.25 mg/kg/injection, schedule: Q01DX010 (ip), vehicle: saline): 6 of 6 | survivor count (dose: 12.5 mg/kg/injection, schedule: Q01DX010 (ip), vehicle: saline): 6 of 6 | survivor count (dose: 25.0 mg/kg/injection, schedule: Q01DX010 (ip), vehicle: saline): 6 of 6 | T/C (dose: 160.0 mg/kg/injection, schedule: Q01DX010 (ip), vehicle: saline): 127 % of control

ICC1(CI)CCCCC1
T/C (dose: 400.0 mg/kg/injection, schedule: Q01DX001 (ip), vehicle: saline with Tween-80): 128 % of control
